For at least one compound, name, drawing or mass did not settle the structure.
What was measured:
Format in all cases: cell-based
Staphylococcus aureus = assay: Antimicrobial activity by agar dilution, Staphylococcus aureus
Protocol: (§1) The antibacterial properties of the synthesized compound (of 2,16-dioxapentacyclo[7.7.5.0^1,21.0^3,8.0^10,15]henicosa3(8), 10,12,14-tetraene-7,20-dione) were studied by the method of agar dilution. Test solutions of each compound was prepared in concentration of 1% using dimethylformamide as a solvent. Then they were diluted in physiological solution to obtain the final experimental dilutions of 1:100, 1:200, 1:400, and 1:800. The effect of these substances were compared with furacillin in a controllable study. The testing microbes used were gram positive bacteria Staphylococcus aureus, gram negative bacteria Pseudomonas aeruginosa, Escherichia coli, and Candida albicans fungus. The experiments used for this survey were meat-pentonlu agar (EPA) for cultivation of bacteria and Saburo environment for fungi. Each experiment used 1 mL of test solution on each plate for 500 minutes. Two drops of emulsified with microbes feel were added. All experimental samples were taken from the agar after 10, 20, 40, 60 minutes in the environment on the basis of Patrk planted. Bacteria were cultivated at a temperature of 37° C. for 1 day and the mushroom was kept in a thermostat for […] at a temperature of 28° C. Then results were checked. Those of control and the antimicrobial activity for the synthesized compounds are listed in Table 1 below, with furacillin serving as a reference.

Escherichia coli = assay: Antimicrobial activity by agar dilution, Escherichia coli
Protocol: as §1

Candida albicans = assay: Antimicrobial (antifungal) activity by agar dilution, Candida albicans
Protocol: as §1

Pseudomonas aeruginosa = assay: Antimicrobial activity by agar dilution, Pseudomonas aeruginosa
Protocol: as §1

[1] = dilution rate 1:100, exposure time 10 min
[2] = dilution rate 1:100, exposure time 20 min
[3] = dilution rate 1:100, exposure time 40 min
[4] = dilution rate 1:100, exposure time 60 min
[5] = dilution rate 1:200, exposure time 10 min
[6] = dilution rate 1:200, exposure time 20 min
[7] = dilution rate 1:200, exposure time 40 min
[8] = dilution rate 1:200, exposure time 60 min
[9] = dilution rate 1:400, exposure time 10 min
[10] = dilution rate 1:400, exposure time 20 min
[11] = dilution rate 1:400, exposure time 40 min
[12] = dilution rate 1:400, exposure time 60 min
[13] = dilution rate 1:800, exposure time 10 min
[14] = dilution rate 1:800, exposure time 20 min
[15] = dilution rate 1:800, exposure time 40 min
[16] = dilution rate 1:800, exposure time 60 min

NC(=O)N/N=C/c1ccc([N+](=O)[O-])o1 [Furacilin]
antimicrobial activity, St. Aereus (Staphylococcus aureus; [1]): −
antimicrobial activity, St. Aereus (Staphylococcus aureus; [2]): −
antimicrobial activity, St. Aereus (Staphylococcus aureus; [3]): −
antimicrobial activity, St. Aereus (Staphylococcus aureus; [4]): −
antimicrobial activity, St. Aereus (Staphylococcus aureus; [5]): +
antimicrobial activity, St. Aereus (Staphylococcus aureus; [6]): +
antimicrobial activity, St. Aereus (Staphylococcus aureus; [7]): +
antimicrobial activity, St. Aereus (Staphylococcus aureus; [8]): +
antimicrobial activity, St. Aereus (Staphylococcus aureus; [9]): +
antimicrobial activity, St. Aereus (Staphylococcus aureus; [10]): +
antimicrobial activity, St. Aereus (Staphylococcus aureus; [11]): +
antimicrobial activity, St. Aereus (Staphylococcus aureus; [12]): +
antimicrobial activity, St. Aereus (Staphylococcus aureus; [13]): +
antimicrobial activity, St. Aereus (Staphylococcus aureus; [14]): +
antimicrobial activity, St. Aereus (Staphylococcus aureus; [15]): +
antimicrobial activity, St. Aereus (Staphylococcus aureus; [16]): +
antimicrobial activity, E. Coli (Escherichia coli; [1]): −
antimicrobial activity, E. Coli (Escherichia coli; [2]): −
antimicrobial activity, E. Coli (Escherichia coli; [3]): −
antimicrobial activity, E. Coli (Escherichia coli; [4]): −
antimicrobial activity, E. Coli (Escherichia coli; [5]): +
antimicrobial activity, E. Coli (Escherichia coli; [6]): +
antimicrobial activity, E. Coli (Escherichia coli; [7]): +
antimicrobial activity, E. Coli (Escherichia coli; [8]): +
antimicrobial activity, E. Coli (Escherichia coli; [9]): +
antimicrobial activity, E. Coli (Escherichia coli; [10]): +
antimicrobial activity, E. Coli (Escherichia coli; [11]): +
antimicrobial activity, E. Coli (Escherichia coli; [12]): +
antimicrobial activity, E. Coli (Escherichia coli; [13]): +
antimicrobial activity, E. Coli (Escherichia coli; [14]): +
antimicrobial activity, E. Coli (Escherichia coli; [15]): +
antimicrobial activity, E. Coli (Escherichia coli; [16]): +
antimicrobial activity, Candida albicans (Candida albicans; [1]): −
antimicrobial activity, Candida albicans (Candida albicans; [2]): −
antimicrobial activity, Candida albicans (Candida albicans; [3]): +
antimicrobial activity, Candida albicans (Candida albicans; [4]): +
antimicrobial activity, Candida albicans (Candida albicans; [5]): +
antimicrobial activity, Candida albicans (Candida albicans; [6]): +
antimicrobial activity, Candida albicans (Candida albicans; [7]): +
antimicrobial activity, Candida albicans (Candida albicans; [8]): +
antimicrobial activity, Candida albicans (Candida albicans; [9]): +
antimicrobial activity, Candida albicans (Candida albicans; [10]): +
antimicrobial activity, Candida albicans (Candida albicans; [11]): +
antimicrobial activity, Candida albicans (Candida albicans; [12]): +
antimicrobial activity, Candida albicans (Candida albicans; [13]): +
antimicrobial activity, Candida albicans (Candida albicans; [14]): +
antimicrobial activity, Candida albicans (Candida albicans; [15]): +
antimicrobial activity, Candida albicans (Candida albicans; [16]): +
antimicrobial activity, Ps. aeruginosa (Pseudomonas aeruginosa; [1]): +
antimicrobial activity, Ps. aeruginosa (Pseudomonas aeruginosa; [2]): +
antimicrobial activity, Ps. aeruginosa (Pseudomonas aeruginosa; [3]): +
antimicrobial activity, Ps. aeruginosa (Pseudomonas aeruginosa; [4]): +
antimicrobial activity, Ps. aeruginosa (Pseudomonas aeruginosa; [5]): +
antimicrobial activity, Ps. aeruginosa (Pseudomonas aeruginosa; [6]): +
antimicrobial activity, Ps. aeruginosa (Pseudomonas aeruginosa; [7]): +
antimicrobial activity, Ps. aeruginosa (Pseudomonas aeruginosa; [8]): +
antimicrobial activity, Ps. aeruginosa (Pseudomonas aeruginosa; [9]): +
antimicrobial activity, Ps. aeruginosa (Pseudomonas aeruginosa; [10]): +
antimicrobial activity, Ps. aeruginosa (Pseudomonas aeruginosa; [11]): +
antimicrobial activity, Ps. aeruginosa (Pseudomonas aeruginosa; [12]): +
antimicrobial activity, Ps. aeruginosa (Pseudomonas aeruginosa; [13]): +
antimicrobial activity, Ps. aeruginosa (Pseudomonas aeruginosa; [14]): +
antimicrobial activity, Ps. aeruginosa (Pseudomonas aeruginosa; [15]): +
antimicrobial activity, Ps. aeruginosa (Pseudomonas aeruginosa; [16]): +
